Measured data: PubChem BioAssay AID504764 (Drosophila RNAi Screening Center, 2011)
The screen tested about 22,000 reagents; shown is a random part of those with a known target gene and a result. In the full data, 403 (1.9%) are marked active. 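Unnormalised raw counts per well; ratio z-scores behind the hit calls and whether each hit raises or lowers signal are not deposited.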 A number with no mark means an inactive call. Names joined by + are all predicted targets of the reagent. Not given: the amount of reagent.

Purpose: 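Genes whose knock-down alters Notch-dependent transcription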 (primary screen)
System: Drosophila Kc167 cells
Reagents: long dsRNA against Drosophila genes
Time to read-out: about 5 days (4 days dsRNA, then 24 h after transfection)
Challenge: transfection of constitutively active membrane-tethered Notch lacking the extracellular domain, read 24 h later
Measurement: 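Light from a Notch-responsive E(spl)m3 luciferase reporter under active Notch, with control-promoter and no-Notch reporter wells to normalise; raw counts from paired wells a and b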
Reading the numbers: induced reporter light, run 1, well a and induced reporter light, run 1, well b: higher = more light from the Notch target reporter with active Notch; control promoter light, run 1, well a and control promoter light, run 1, well b: higher = more light from the viral control promoter (cell number, transfection, viability); uninduced reporter light, run 1, well a: higher = more light from the Notch target reporter without active Notch
Rule for the call: 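Wells with low control signal or poorly matching duplicates excluded; duplicates averaged; per source plate, z beyond ±2 for induced/control log2 ratio or beyond ±1.8 for induced/uninduced marks a hit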
Calls: active = modifier hit (raised or lowered Notch signal); inactive = not a hit

Silencing of CG31342 [DRSC15349] resulted in: induced reporter light, run 1, well a = 1.34e5; induced reporter light, run 1, well b = 1.33e5; control promoter light, run 1, well a = 1.05e5; control promoter light, run 1, well b = 92010; uninduced reporter light, run 1, well a = 11280. CG31342 [DRSC16246] gave induced reporter light, run 1, well a = 3.20e5; induced reporter light, run 1, well b = 2.92e5; control promoter light, run 1, well a = 2.36e5; control promoter light, run 1, well b = 2.44e5; uninduced reporter light, run 1, well a = 24255. Got1 [DRSC07177] showed induced reporter light, run 1, well a = 1.18e5; induced reporter light, run 1, well b = 1.28e5; control promoter light, run 1, well a = 2.36e5; control promoter light, run 1, well b = 2.76e5; uninduced reporter light, run 1, well a = 8270. Against CG16976 (retired record) [DRSC08499] the deposit lists induced reporter light, run 1, well a = 1.42e5; induced reporter light, run 1, well b = 98215; control promoter light, run 1, well a = 1.88e5; control promoter light, run 1, well b = 1.66e5; uninduced reporter light, run 1, well a = 9845. CG18135 [DRSC10295] gave induced reporter light, run 1, well a = 1.74e5; induced reporter light, run 1, well b = 1.59e5; control promoter light, run 1, well a = 1.01e5; control promoter light, run 1, well b = 1.25e5; uninduced reporter light, run 1, well a = 13370. Syt14 [DRSC12331] showed induced reporter light, run 1, well a = 1.51e5; induced reporter light, run 1, well b = 1.43e5; control promoter light, run 1, well a = 1.07e5; control promoter light, run 1, well b = 1.31e5; uninduced reporter light, run 1, well a = 10345.

Depletion of Ldsdh1 [DRSC18219] resulted in: induced reporter light, run 1, well a = 1.45e5; induced reporter light, run 1, well b = 1.49e5; control promoter light, run 1, well a = 3.76e5; control promoter light, run 1, well b = 3.34e5; uninduced reporter light, run 1, well a = 11345. Against ltl [DRSC10206], the entry reads induced reporter light, run 1, well a = 2.07e5; induced reporter light, run 1, well b = 2.21e5; control promoter light, run 1, well a = 2.66e5; control promoter light, run 1, well b = 2.23e5; uninduced reporter light, run 1, well a = 10450. For ltl [DRSC10870], the entry reads induced reporter light, run 1, well a = 2.48e5; induced reporter light, run 1, well b = 1.90e5; control promoter light, run 1, well a = 2.27e5; control promoter light, run 1, well b = 1.91e5; uninduced reporter light, run 1, well a = 9210. CG2224 [DRSC15429] showed induced reporter light, run 1, well a = 91645; induced reporter light, run 1, well b = 76620; control promoter light, run 1, well a = 1.63e5; control promoter light, run 1, well b = 1.28e5; uninduced reporter light, run 1, well a = 7992. CG15539 [DRSC15075] gave induced reporter light, run 1, well a = 1.88e5; induced reporter light, run 1, well b = 1.67e5; control promoter light, run 1, well a = 1.87e5; control promoter light, run 1, well b = 1.88e5; uninduced reporter light, run 1, well a = 14165. Against alpha-Est1 [DRSC12612] the deposit lists induced reporter light, run 1, well a = 1.66e5; induced reporter light, run 1, well b = 1.31e5; control promoter light, run 1, well a = 1.04e5; control promoter light, run 1, well b = 86095; uninduced reporter light, run 1, well a = 11550.

Knock-down of CheB42c [DRSC04972] came out at: induced reporter light, run 1, well a = 2.19e5; induced reporter light, run 1, well b = 2.06e5; control promoter light, run 1, well a = 2.31e5; control promoter light, run 1, well b = 1.96e5; uninduced reporter light, run 1, well a = 17275. Knock-down of Semp1 [DRSC01874] resulted in: induced reporter light, run 1, well a = 1.28e5; induced reporter light, run 1, well b = 1.22e5; control promoter light, run 1, well a = 1.06e5; control promoter light, run 1, well b = 1.12e5; uninduced reporter light, run 1, well a = 11520. With knock-down of CG33191 + Pif1B [DRSC12706] the results were induced reporter light, run 1, well a = 1.82e5; induced reporter light, run 1, well b = 1.52e5; control promoter light, run 1, well a = 1.59e5; control promoter light, run 1, well b = 1.86e5; uninduced reporter light, run 1, well a = 12025. Silencing of Cpr67Fa2 [DRSC10315] came out at: induced reporter light, run 1, well a = 1.48e5; induced reporter light, run 1, well b = 1.36e5; control promoter light, run 1, well a = 2.57e5; control promoter light, run 1, well b = 2.10e5; uninduced reporter light, run 1, well a = 8945. Vha36-2 [DRSC06294] showed induced reporter light, run 1, well a = 77555; induced reporter light, run 1, well b = 70805; control promoter light, run 1, well a = 99915; control promoter light, run 1, well b = 92105; uninduced reporter light, run 1, well a = 8388. After knock-down of Hsp60A [DRSC20254] the results were induced reporter light, run 1, well a = 1.46e5; induced reporter light, run 1, well b = 1.80e5; control promoter light, run 1, well a = 2.04e5; control promoter light, run 1, well b = 2.49e5; uninduced reporter light, run 1, well a = 11945.

Entries above whose gene name starts with S or s:
Syt14 [DRSC12331]: induced reporter light, run 1, well a = 1.51e5; induced reporter light, run 1, well b = 1.43e5; control promoter light, run 1, well a = 1.07e5; control promoter light, run 1, well b = 1.31e5; uninduced reporter light, run 1, well a = 10345
Semp1 [DRSC01874]: induced reporter light, run 1, well a = 1.28e5; induced reporter light, run 1, well b = 1.22e5; control promoter light, run 1, well a = 1.06e5; control promoter light, run 1, well b = 1.12e5; uninduced reporter light, run 1, well a = 11520
